Common to all, as to experiment: co-IP; RIPA-solubilized membrane extracts of adult mouse cerebellum (1 mg/ml) incubated overnight at 0-4°C with anti-Cav2.1, anti-mGlu1α or anti-SK2 antibody (2 μg); immunoprecipitates analysed by SDS-PAGE and immunoblot; control IgG gave no bands
Test [1] addresses mGlu1α receptor (mouse (endogenous in cerebellum)) (UniProt P97772).
The target of test [2] is CaV2.1 channel (mouse (endogenous in cerebellum)) (UniProt P97445).
Test [3] addresses small-conductance, Ca2+-activated K+ (SK) channel subtype SK2 (mouse (endogenous in cerebellum)) (UniProt P58390).

Chains of the proteins cited; added tags and fusions are not shown. Residues count along the entry.
UniProt P97772, residues 21-1199: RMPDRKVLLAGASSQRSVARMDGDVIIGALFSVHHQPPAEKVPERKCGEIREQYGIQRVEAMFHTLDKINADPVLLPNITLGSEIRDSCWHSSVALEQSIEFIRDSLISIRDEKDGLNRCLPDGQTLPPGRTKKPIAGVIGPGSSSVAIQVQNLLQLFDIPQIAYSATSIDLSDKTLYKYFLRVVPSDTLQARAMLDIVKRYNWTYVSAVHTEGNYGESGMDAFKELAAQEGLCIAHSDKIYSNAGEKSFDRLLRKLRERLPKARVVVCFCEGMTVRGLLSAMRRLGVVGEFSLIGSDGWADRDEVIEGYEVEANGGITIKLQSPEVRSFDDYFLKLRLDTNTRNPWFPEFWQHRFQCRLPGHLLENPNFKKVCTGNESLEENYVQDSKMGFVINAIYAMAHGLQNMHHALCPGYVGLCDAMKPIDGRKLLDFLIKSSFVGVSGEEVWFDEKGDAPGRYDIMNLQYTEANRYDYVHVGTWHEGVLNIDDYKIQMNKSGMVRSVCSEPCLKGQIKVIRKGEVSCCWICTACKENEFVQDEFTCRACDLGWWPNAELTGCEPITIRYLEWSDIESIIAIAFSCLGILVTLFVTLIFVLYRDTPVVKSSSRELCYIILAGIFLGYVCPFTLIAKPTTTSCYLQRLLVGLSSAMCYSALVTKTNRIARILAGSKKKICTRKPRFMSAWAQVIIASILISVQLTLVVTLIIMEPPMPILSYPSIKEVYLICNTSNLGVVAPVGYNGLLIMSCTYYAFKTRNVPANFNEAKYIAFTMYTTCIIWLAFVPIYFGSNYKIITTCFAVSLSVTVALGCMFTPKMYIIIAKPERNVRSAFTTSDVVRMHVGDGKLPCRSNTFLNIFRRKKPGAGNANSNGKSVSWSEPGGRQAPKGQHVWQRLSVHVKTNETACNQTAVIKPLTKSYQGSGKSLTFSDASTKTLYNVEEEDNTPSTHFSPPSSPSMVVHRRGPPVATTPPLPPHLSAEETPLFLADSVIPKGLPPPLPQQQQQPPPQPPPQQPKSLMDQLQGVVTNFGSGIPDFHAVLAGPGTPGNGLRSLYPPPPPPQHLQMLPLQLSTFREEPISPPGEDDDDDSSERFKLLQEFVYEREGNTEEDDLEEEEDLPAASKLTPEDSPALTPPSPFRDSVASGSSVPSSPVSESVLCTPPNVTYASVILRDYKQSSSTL
UniProt P97445: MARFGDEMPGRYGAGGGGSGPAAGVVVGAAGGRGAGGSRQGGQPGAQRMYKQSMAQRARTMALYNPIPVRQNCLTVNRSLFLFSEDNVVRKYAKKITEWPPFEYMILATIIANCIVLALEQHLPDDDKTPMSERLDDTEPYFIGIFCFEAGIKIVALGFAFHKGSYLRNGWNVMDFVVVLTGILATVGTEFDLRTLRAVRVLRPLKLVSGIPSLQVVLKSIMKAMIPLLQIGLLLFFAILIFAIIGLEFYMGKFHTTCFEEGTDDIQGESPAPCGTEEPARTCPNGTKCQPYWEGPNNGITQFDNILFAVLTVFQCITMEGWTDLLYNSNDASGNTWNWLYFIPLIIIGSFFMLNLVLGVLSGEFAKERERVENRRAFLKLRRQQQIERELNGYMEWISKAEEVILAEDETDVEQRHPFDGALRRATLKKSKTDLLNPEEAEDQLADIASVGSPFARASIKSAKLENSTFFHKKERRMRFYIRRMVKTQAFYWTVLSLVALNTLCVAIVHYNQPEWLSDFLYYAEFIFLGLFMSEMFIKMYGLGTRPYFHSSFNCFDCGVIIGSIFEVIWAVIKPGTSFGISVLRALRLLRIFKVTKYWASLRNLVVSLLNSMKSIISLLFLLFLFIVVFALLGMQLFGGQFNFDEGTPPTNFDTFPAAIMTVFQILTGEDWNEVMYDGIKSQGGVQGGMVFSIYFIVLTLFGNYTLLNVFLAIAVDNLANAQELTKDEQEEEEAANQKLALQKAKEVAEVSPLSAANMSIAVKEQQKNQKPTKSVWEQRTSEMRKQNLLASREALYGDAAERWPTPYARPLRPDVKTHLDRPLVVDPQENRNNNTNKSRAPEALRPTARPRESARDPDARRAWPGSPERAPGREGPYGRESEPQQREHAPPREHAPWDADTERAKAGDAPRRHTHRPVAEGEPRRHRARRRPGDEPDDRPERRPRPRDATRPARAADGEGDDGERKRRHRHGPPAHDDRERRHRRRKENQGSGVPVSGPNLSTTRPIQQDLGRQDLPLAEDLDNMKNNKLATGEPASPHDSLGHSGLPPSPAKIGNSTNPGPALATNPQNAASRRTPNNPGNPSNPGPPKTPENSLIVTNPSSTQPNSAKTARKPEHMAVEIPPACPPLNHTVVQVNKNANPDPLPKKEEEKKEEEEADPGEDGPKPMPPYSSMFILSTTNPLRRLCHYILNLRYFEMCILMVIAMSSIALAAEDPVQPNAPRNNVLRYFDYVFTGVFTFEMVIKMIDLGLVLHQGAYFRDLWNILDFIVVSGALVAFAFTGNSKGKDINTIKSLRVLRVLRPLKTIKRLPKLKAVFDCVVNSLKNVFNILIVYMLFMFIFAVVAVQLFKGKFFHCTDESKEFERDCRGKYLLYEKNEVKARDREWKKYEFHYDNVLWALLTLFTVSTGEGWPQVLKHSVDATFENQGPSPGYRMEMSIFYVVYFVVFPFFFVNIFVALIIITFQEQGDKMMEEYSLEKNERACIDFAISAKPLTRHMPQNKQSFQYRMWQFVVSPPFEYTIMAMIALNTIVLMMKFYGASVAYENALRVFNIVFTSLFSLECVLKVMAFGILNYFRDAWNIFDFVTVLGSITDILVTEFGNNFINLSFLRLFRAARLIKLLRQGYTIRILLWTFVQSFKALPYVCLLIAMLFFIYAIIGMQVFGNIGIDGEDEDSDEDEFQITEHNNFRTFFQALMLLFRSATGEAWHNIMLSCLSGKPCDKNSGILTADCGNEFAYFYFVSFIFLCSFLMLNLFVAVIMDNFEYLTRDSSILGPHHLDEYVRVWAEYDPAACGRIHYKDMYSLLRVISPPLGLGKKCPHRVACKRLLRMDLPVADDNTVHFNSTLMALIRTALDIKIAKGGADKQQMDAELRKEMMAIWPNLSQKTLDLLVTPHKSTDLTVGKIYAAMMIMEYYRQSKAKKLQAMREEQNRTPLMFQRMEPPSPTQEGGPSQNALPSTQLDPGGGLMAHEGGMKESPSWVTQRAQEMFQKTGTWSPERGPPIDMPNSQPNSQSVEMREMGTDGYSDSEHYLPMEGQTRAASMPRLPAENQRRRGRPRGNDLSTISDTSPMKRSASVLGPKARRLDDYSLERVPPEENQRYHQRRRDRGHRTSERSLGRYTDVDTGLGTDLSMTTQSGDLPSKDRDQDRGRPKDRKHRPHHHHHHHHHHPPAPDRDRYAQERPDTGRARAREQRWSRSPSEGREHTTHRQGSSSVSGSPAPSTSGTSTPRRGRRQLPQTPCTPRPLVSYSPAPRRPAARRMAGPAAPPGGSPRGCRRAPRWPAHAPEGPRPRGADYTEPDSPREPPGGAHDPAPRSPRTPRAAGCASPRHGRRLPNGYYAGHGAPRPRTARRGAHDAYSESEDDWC
UniProt P58390, residues 266-839: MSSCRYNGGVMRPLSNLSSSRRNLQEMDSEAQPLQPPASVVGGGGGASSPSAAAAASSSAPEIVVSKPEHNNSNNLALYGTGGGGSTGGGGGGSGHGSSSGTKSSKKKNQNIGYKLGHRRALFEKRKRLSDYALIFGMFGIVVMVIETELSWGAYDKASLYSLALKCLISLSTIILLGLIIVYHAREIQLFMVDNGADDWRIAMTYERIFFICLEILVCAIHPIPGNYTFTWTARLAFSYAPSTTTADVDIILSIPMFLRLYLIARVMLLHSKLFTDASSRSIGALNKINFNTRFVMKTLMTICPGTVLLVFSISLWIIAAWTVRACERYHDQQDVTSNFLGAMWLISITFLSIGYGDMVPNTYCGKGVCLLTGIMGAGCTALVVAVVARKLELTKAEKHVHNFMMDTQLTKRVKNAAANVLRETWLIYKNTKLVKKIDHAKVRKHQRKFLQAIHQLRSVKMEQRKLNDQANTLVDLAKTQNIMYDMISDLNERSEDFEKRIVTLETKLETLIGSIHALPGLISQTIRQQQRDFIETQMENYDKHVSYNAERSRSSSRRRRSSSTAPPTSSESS

These are yes or no findings as the source states them, for the method shown. Binding seen in cells or lysates may run through a third protein. Some entries that bind do so weakly or less than the wild type.

Consider “small-conductance, Ca2+-activated K+ (SK) channel subtype SK2 (from UniProt P58390 1-574)”, for which the values for the binding entry in test [1] and in test [2] were “binds weakly” and “binds”, respectively.
Regarding “CaV2.1 channel (from UniProt P97445 1-2368)”, the binding result is recorded as “binds” in test [3] and “binds weakly” in test [1].
Turning to “mGlu1α receptor (from UniProt P97772 21-1199)”, the binding result in test [3] and in test [2] was “binds” in each case.

The values are drawn from paper PMC6156379.
